Taken from: PubChem BioAssay AID1671195 (Yale University, 2021)

- Test: 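Genes whose knockdown alters LDL uptake in liver cancer cells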 (primary screen)
- Cell system: human Huh7 hepatoma cells
- Reagents: siRNA pool against human genes, 18 nM
- Timing: about 2 to 2.5 days of knockdown, then 8 h LDL uptake
- Treatment: DiI-labelled LDL at 30 µg/ml for 8 h, in lipoprotein-deficient serum medium
- Measurement: 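Fluorescent LDL signal imaged in cells, scaled to the plate median, robust z-score for each replicate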
- Direction: robust z-score: higher = more LDL uptake after knockdown
- Active means: 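a gene counts as active if at least two replicate z-scores exceed ±2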
Here is a random part of about 22,000 reagents tested. In the full data, about 1,510 (6.9%) are marked active. 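Active includes knockdowns raising or lowering LDL uptake; positive z-scores mean more uptake, negative mean less.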 Unmarked entries are inactive.

no.	gene knocked down	robust z-score, replicate 1	robust z-score, replicate 2	robust z-score, replicate 3
1	NAPEPLD (N-acyl phosphatidylethanolamine phospholipase D)	-0.49	-0.453	-0.0362
2	SLC38A2	0.706	1.6	-0.209
3	ELP1 (elongator acetyltransferase complex subunit 1)	0.128	0.487	0.554
4	LOC442124 (retired record)	-2.09	-1.66	-1.11
5	IPO9 (importin 9)	-1.24	0.153	-0.747
6	LOC343839 (retired record)	0.295	0.781	0.687
7	LOC400712 (retired record)	0.519	0.232	1.02
8	LOC441837 (retired record)	-0.674	-0.923	-0.722
9	BOP1 (BOP1 ribosomal biogenesis factor)	0.221	-2.18	-0.145
10	ATOH8 (atonal bHLH transcription factor 8)	-0.168	0.501	0.102
11	CA2 (carbonic anhydrase 2)	-3.38	-1.15	-1.06
12	BDNF (brain derived neurotrophic factor)	-0.889	-0.733	1.65
13	FASTKD5 (FASTK mitochondrial RNA regulator 5)	1.41	2.27	1.51
14	SPHK1 (sphingosine kinase 1)	0.26	-0.396	-0.165
15	ABCA7 (ATP binding cassette subfamily A member 7)	-0.397	-0.295	-0.138
16	OR6B3 (olfactory receptor family 6 subfamily B member 3)	-1.45 (active)	-2.26	-1.83
17	ANKRD34C (ankyrin repeat domain 34C)	1.07	0.138	0.511
18	LINC00475 (long independently transcribed non-coding RNA 475)	-0.15	1.02	-0.568
19	EFCAB7 (EF-hand calcium binding domain 7)	0.132	1.59	-0.114
20	ZNRF2P1 (zinc and ring finger 2 pseudogene 1)	2.12 (active)	2.88	2.78
21	ENGASE (endo-beta-N-acetylglucosaminidase)	-0.793	-0.612	-0.61
22	FLJ26086 (retired record)	0.28	-0.274	0.0743
23	MRPS18C (mitochondrial ribosomal protein S18C)	0.247	0.0674	-2.52
24	NT5DC1 (5'-nucleotidase domain containing 1)	2.05	1.49	1.86
25	LOC441180 (retired record)	0.689	-0.145	-0.316
26	ABCA8 (ATP binding cassette subfamily A member 8)	-0.199	-0.359	0.0494
27	SGK1 (serum/glucocorticoid regulated kinase 1)	1	0.551	0.595
28	SMIM29 (small integral membrane protein 29)	-0.697	-0.942	-0.857
29	GLMP (glycosylated lysosomal membrane protein)	0.0687	0.152	0.197
30	SMG7-AS1 (SMG7 antisense RNA 1)	-0.29	-0.141	-0.636
31	HROB (homologous recombination factor with OB-fold)	-1.11	-0.962	-0.98
32	TXNDC9P1 (TXNDC9 pseudogene 1)	1.36	1.48	1.55
33	HAUS6 (HAUS augmin like complex subunit 6)	-1.18	-0.821	0.43
34	LOC441349 (retired record)	0.646	0.302	0.478
35	ACOT9 (acyl-CoA thioesterase 9)	1.1	1.95	1.42
36	LY86-AS1 (LY86 antisense RNA 1)	0.316	0.424	0.737
37	TNFSF4 (TNF superfamily member 4)	0.13	-0.3	0.199
38	MFN1P1 (MFN1 pseudogene 1)	2.87	1.54	1.03
39	DKKL1 (dickkopf like acrosomal protein 1)	-2.17	-0.894	-0.491
40	RAD54L2 (RAD54 like 2)	0.163	0.245	0.52

Sorted by “robust z-score, replicate 3” (ascending): some entries from above.
gene knocked down	robust z-score, replicate 1	robust z-score, replicate 2	robust z-score, replicate 3
MRPS18C (mitochondrial ribosomal protein S18C)	0.247	0.0674	-2.52
OR6B3 (olfactory receptor family 6 subfamily B member 3)	-1.45 (active)	-2.26	-1.83
ENGASE (endo-beta-N-acetylglucosaminidase)	-0.793	-0.612	-0.61
LINC00475 (long independently transcribed non-coding RNA 475)	-0.15	1.02	-0.568
SPHK1 (sphingosine kinase 1)	0.26	-0.396	-0.165
ABCA7 (ATP binding cassette subfamily A member 7)	-0.397	-0.295	-0.138
EFCAB7 (EF-hand calcium binding domain 7)	0.132	1.59	-0.114
FLJ26086 (retired record)	0.28	-0.274	0.0743
ANKRD34C (ankyrin repeat domain 34C)	1.07	0.138	0.511
ZNRF2P1 (zinc and ring finger 2 pseudogene 1)	2.12 (active)	2.88	2.78

Next entries:
no.	gene knocked down	robust z-score, replicate 1	robust z-score, replicate 2	robust z-score, replicate 3
41	CA10 (carbonic anhydrase 10 (inactive))	0.0562	-0.124	-0.311
42	DRC2 (dynein regulatory complex subunit 2)	-0.669	-0.651	-0.716
43	ATP6V1G2 (ATPase H+ transporting V1 subunit G2)	3.39 (active)	2.97	2.71
44	MSANTD2 (Myb/SANT DNA binding domain containing 2)	-0.101	-0.0384	-0.0254
45	HAVCR2 (hepatitis A virus cellular receptor 2)	1.24	1.1	0.526
46	ZNF479 (zinc finger protein 479)	1.01	0.657	1.09
47	DKFZp434E1119 (retired record)	-1.04	-0.999	-1.54
48	DGKA (diacylglycerol kinase alpha)	-0.651	-0.648	-0.93
49	PLEKHN1 (pleckstrin homology domain containing N1)	0.0253	0.84	0.362
50	LINC00664 (long independently transcribed non-coding RNA 664)	0.128	0.322	-0.188
51	RBKS (ribokinase)	0.93	0.741	0.378
52	ZNF672 (zinc finger protein 672)	-0.663	-0.754	-0.902
53	RPL26P13 (ribosomal protein L26 pseudogene 13)	-1.16	-0.721	-0.81
54	BEGAIN (brain enriched guanylate kinase associated)	-1.82	-0.377	0.376
55	LOC441734 (retired record)	-0.619	-0.671	-0.337
56	LOC391776 (retired record)	-0.305	-0.338	0.279
57	HTR1F (5-hydroxytryptamine receptor 1F)	-0.921	-1.21	-1.02
58	KLHL32 (kelch like family member 32)	0.853	-1.24	-0.314
59	REG3A (regenerating family member 3 alpha)	-0.405	-0.554	0.35
60	IL6R (interleukin 6 receptor)	-0.892	-1.06	-0.575
61	LOC441075 (retired record)	-0.744	-0.598	-0.458
62	ZC3H12C (zinc finger CCCH-type containing 12C)	3.91 (active)	2.68	3.19
63	VAC14 (VAC14 component of PIKFYVE complex)	-0.533	-1.74	1.73
64	TUBB (tubulin beta class I)	-1.47	-1.34	-1.02
65	C10orf120 (chromosome 10 open reading frame 120)	0.753	-0.0517	0.411
66	WASHC5 (WASH complex subunit 5)	-0.607	0.122	-1.39
67	APOD (apolipoprotein D)	-0.917	-0.442	-0.425
68	CCDC160 (coiled-coil domain containing 160)	2.74 (active)	2.99	2.43
